Results are given in words; binding and its absence hold for the method and conditions named. Binding seen in cells or lysates may run through a third protein. These calls come from enrichment with a bait or labelling near it, and not all partners need be listed. For some of these results: No binding means not detected with the bait. For some of these results: Where a sequence is shown, tags or fusion partners need not be part of it.
T1: SREBP2-FLAG (human) (UniProt Q12772)
T1 sequence: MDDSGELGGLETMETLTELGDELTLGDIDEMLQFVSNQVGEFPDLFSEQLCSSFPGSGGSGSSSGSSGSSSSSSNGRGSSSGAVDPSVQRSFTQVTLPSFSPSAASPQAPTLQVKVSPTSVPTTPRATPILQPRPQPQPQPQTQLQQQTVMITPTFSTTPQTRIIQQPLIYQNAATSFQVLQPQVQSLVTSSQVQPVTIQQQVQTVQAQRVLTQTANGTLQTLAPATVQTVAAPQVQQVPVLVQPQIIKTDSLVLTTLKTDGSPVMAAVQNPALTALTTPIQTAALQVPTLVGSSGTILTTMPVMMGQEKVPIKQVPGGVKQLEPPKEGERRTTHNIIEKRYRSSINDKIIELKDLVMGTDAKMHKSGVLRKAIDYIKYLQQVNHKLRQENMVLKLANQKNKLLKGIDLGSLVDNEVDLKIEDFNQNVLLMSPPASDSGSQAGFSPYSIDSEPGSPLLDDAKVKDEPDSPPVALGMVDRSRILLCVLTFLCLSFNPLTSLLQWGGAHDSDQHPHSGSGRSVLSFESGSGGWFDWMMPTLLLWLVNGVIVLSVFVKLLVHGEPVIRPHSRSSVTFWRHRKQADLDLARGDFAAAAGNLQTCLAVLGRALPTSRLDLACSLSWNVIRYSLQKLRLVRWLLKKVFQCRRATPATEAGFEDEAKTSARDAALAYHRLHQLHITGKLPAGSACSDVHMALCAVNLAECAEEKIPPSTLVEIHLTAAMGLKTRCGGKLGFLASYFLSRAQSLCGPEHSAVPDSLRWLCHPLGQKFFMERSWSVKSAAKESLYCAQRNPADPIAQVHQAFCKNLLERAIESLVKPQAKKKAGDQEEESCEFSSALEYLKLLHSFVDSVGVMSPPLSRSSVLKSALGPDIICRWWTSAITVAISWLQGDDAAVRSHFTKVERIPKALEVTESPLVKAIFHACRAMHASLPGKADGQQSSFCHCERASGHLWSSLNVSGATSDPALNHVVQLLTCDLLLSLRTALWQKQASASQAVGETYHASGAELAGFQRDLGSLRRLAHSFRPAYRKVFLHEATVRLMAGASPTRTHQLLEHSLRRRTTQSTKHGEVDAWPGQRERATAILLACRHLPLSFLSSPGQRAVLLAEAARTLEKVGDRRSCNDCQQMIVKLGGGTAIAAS

Sequences of proteins named here, by UniProt entry; tags and fusion partners are left off.
UniProt Q86WV6: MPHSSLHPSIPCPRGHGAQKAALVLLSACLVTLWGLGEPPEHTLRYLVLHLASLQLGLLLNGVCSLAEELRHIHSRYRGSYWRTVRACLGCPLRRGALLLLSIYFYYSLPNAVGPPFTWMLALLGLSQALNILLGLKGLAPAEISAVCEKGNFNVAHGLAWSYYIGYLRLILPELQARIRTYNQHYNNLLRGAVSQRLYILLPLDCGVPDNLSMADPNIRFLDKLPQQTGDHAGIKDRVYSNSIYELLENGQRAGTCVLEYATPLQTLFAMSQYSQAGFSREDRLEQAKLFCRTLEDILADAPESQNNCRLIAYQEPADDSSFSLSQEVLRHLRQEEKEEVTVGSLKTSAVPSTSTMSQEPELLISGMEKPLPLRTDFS
UniProt P01375: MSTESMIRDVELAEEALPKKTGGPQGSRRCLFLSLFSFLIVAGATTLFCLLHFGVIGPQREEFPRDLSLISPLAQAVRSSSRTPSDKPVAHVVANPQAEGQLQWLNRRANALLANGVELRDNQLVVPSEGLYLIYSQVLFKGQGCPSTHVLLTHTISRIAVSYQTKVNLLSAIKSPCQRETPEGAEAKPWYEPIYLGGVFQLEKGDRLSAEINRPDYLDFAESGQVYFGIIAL

T2: human iTAP-FLAG (human) (UniProt Q9BZ67)
T2 sequence: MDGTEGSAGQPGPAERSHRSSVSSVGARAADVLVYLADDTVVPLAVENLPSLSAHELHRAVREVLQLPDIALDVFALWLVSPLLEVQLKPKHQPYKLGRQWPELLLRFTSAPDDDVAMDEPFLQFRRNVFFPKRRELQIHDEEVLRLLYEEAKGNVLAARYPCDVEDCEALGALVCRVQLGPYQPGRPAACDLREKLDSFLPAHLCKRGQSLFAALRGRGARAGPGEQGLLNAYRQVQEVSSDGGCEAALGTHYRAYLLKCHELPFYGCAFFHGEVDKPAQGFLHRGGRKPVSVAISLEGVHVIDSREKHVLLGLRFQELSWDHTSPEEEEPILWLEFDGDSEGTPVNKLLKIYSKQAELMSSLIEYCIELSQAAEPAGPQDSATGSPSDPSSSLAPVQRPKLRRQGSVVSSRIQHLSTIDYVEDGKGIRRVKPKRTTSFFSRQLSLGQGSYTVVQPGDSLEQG


Columns and labels:
Assay in all cases: affinity purification with mass spectrometry; anti-FLAG M2 Affinity Gel immunoprecipitates from HEK 293ET transfected with FLAG-tagged proteins; on-bead trypsin digest, mass spectrometry
STING-FLAG (human) = STING-FLAG (human) (UniProt Q86WV6)
SREBP2-FLAG (human) = molecular target: T1, SREBP2-FLAG (human)
human iTAP-FLAG (human) = molecular target: T2, human iTAP-FLAG (human)
[1] = molecular target: Human Tumor Necrosis Factor (TNF) containing an N-terminal FLAG tag (human) (UniProt P01375)

| binding (STING-FLAG (human)) | binding (SREBP2-FLAG (human)) | binding (human iTAP-FLAG (human)) | Binder | binding [1] |
| --- | --- | --- | --- | --- |
| no binding | no binding | binds | endogenous iRhom1 (protein, UniProt Q96CC6 1-855) MSEARRDSTSSLQRKKPPWLKLDIPSAVPLTAEEPSFLQPLRRQAFLRSVSMPAETAHISSPHHELRRPVLQRQTSITQTIRRGTADWFGVSKDSDSTQKWQRKSIRHCSQRYGKLKPQVLRELDLPSQDNVSLTSTETPPPLYVGPCQLGMQKIIDPLARGRAFRVADDTAEGLSAPHTPVTPGAASLCSFSSSRSGFHRLPRRRKRESVAKMSFRAAAALMKGRSVRDGTFRRAQRRSFTPASFLEEDTTDFPDELDTSFFAREGILHEELSTYPDEVFESPSEAALKDWEKAPEQADLTGGALDRSELERSHLMLPLERGWRKQKEGAAAPQPKVRLRQEVVSTAGPRRGQRIAVPVRKLFAREKRPYGLGMVGRLTNRTYRKRIDSFVKRQIEDMDDHRPFFTYWLTFVHSLVTILAVCIYGIAPVGFSQHETVDSVLRNRGVYENVKYVQQENFWIGPSSEALIHLGAKFSPCMRQDPQVHSFIRSAREREKHSACCVRNDRSGCVQTSEEECSSTLAVWVKWPIHPSAPELAGHKRQFGSVCHQDPRVCDEPSSEDPHEWPEDITKWPICTKNSAGNHTNHPHMDCVITGRPCCIGTKGRCEITSREYCDFMRGYFHEEATLCSQVHCMDDVCGLLPFLNPEVPDQFYRLWLSLFLHAGILHCLVSICFQMTVLRDLEKLAGWHRIAIIYLLSGVTGNLASAIFLPYRAEVGPAGSQFGILACLFVELFQSWQILARPWRAFFKLLAVVLFLFTFGLLPWIDNFAHISGFISGLFLSFAFLPYISFGKFDLYRKRCQIIIFQVVFLGLLAGLVVLFYVYPVRCEWCEFLTCIPFTDKFCEKYELDAQLH | no binding |
| – | no binding | binds | endogenous iRhom2 (protein, UniProt Q6PJF5 1-856) MASADKNGGSVSSVSSSRLQSRKPPNLSITIPPPEKETQAPGEQDSMLPEGFQNRRLKKSQPRTWAAHTTACPPSFLPKRKNPAYLKSVSLQEPRSRWQESSEKRPGFRRQASLSQSIRKGAAQWFGVSGDWEGQRQQWQRRSLHHCSMRYGRLKASCQRDLELPSQEAPSFQGTESPKPCKMPKIVDPLARGRAFRHPEEMDRPHAPHPPLTPGVLSLTSFTSVRSGYSHLPRRKRMSVAHMSLQAAAALLKGRSVLDATGQRCRVVKRSFAFPSFLEEDVVDGADTFDSSFFSKEEMSSMPDDVFESPPLSASYFRGIPHSASPVSPDGVQIPLKEYGRAPVPGPRRGKRIASKVKHFAFDRKKRHYGLGVVGNWLNRSYRRSISSTVQRQLESFDSHRPYFTYWLTFVHVIITLLVICTYGIAPVGFAQHVTTQLVLRNKGVYESVKYIQQENFWVGPSSIDLIHLGAKFSPCIRKDGQIEQLVLRERDLERDSGCCVQNDHSGCIQTQRKDCSETLATFVKWQDDTGPPMDKSDLGQKRTSGAVCHQDPRTCEEPASSGAHIWPDDITKWPICTEQARSNHTGFLHMDCEIKGRPCCIGTKGSCEITTREYCEFMHGYFHEEATLCSQVHCLDKVCGLLPFLNPEVPDQFYRLWLSLFLHAGVVHCLVSVVFQMTILRDLEKLAGWHRIAIIFILSGITGNLASAIFLPYRAEVGPAGSQFGLLACLFVELFQSWPLLERPWKAFLNLSAIVLFLFICGLLPWIDNIAHIFGFLSGLLLAFAFLPYITFGTSDKYRKRALILVSLLAFAGLFAALVLWLYIYPINWPWIEHLTCFPFTSRFCEKYELDQVLH | no binding |
